Values from PubChem BioAssay AID1508597 (Cure First, 2020).

Purpose: 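Survival screen with siRNA in ovarian cancer cells derived from patients, with or without rucaparib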 (primary screen)
System: human ovarian carcinoma lines grown from tumours: OCI-P5x (papillary serous) and OCI-C5x (clear cell)
Knock-down reagent: siRNA pool against human genes, 1.25 pmol siRNA per well
Timing: 72 h or 96 h, depending on the cell culture
Challenge: rucaparib 20 µM (about IC30) or vehicle, present until read-out
Rucaparib or vehicle: Vehicle
Cell line: OCI-P5x (serous)
Measurement: 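Luminescent ATP-based viability assay read 72 or 96 h after transfection, depending on culture, given as normalised percent viability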
Scale: viability, normalised: higher = more viable cells remaining
Active means: 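Active when normalised viability falls below 80 percent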
Calls: active = viability under 80%; inactive = viability 80% or more
This is a random part of the about 2,100 reagents, in one setting of the screen. 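Calls flag viability under 80% in either arm, not effects specific to rucaparib; the reference for percent is not stated.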 Not stated in the record: the 100% reference.

With ONECUT1, technical replicate 1, what does the deposit list?
viability, normalised (%): 52.9; Outcome: active

With ONECUT1, technical replicate 2, what was measured?
viability, normalised (%): 53.5; Outcome: active

What did the screen give for ONECUT1, technical replicate 3?
viability, normalised (%): 75; Outcome: active

What did the screen give for LMTK1, technical replicate 1?
viability, normalised (%): 71.9; Outcome: active

With LMTK1, technical replicate 2, what was measured?
viability, normalised (%): 78.7; Outcome: active

With LMTK1, technical replicate 3, how do the results read?
viability, normalised (%): 75.6; Outcome: active

Records listed so far with an active call (6):
ONECUT1, technical replicate 1: viability, normalised (%) = 52.9; Outcome = active
ONECUT1, technical replicate 2: viability, normalised (%) = 53.5; Outcome = active
ONECUT1, technical replicate 3: viability, normalised (%) = 75; Outcome = active
LMTK1, technical replicate 1: viability, normalised (%) = 71.9; Outcome = active
LMTK1, technical replicate 2: viability, normalised (%) = 78.7; Outcome = active
LMTK1, technical replicate 3: viability, normalised (%) = 75.6; Outcome = active

The results go on:
What did the screen give for KMT5B, technical replicate 1?
viability, normalised (%): 76; Outcome: active

For KMT5B, technical replicate 2, what does the deposit list?
viability, normalised (%): 73.6; Outcome: active

How did the screen score KMT5B, technical replicate 3?
viability, normalised (%): 55.3; Outcome: active

For AK1, technical replicate 1, how do the results read?
viability, normalised (%): 107; Outcome: inactive

With AK1, technical replicate 2, what does the deposit list?
viability, normalised (%): 93.6; Outcome: inactive

With AK1, technical replicate 3, how do the results read?
viability, normalised (%): 101; Outcome: inactive
